Assay: Oral taste test (20 uL on the tongue)
Format: in vivo, human

## O=C(O)c1cn(C2CC2)c2cc(N3CCNCC3)c(F)cc2c1=O [Ciprofloxacin]
10 mg/mL, single volunteer
  Oral taste, Initial Solution: sweet almond-like taste
After pH adjustment
  Oral taste, Final Solution: very strong bitter
